PubChem BioAssay AID445 (National Center for Advancing Translational Sciences (NCATS), 2006)
This is one part of the list. Further columns of the screen follow, without active or inactive calls. Compounds called inactive in the main read-out are mostly missing here. Words in brackets tell the shape of the fitted curve; partial curves, single points and poor fits give uncertain potencies.

Assay: IkB Signaling
Details: ABC-DLBCL IkBa-CBG/CBR dual luciferase ratio (green luciferase fused to IkBa over red control in OCI-Ly3 lymphoma cells), 4 h; measured here: control luc red channel unless noted
Summary of the method: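 Curves were fitted separately to fusion (green), unfused (red) and ratio luminescence, then classed by r2, magnitude and activity. Cells: OCI-Ly3, 4 h compound plus doxycycline at 37C; 10 uM MG-132 defined full response.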

| SMILES | AC50 |
| --- | --- |
| COc1cc2ccccc2cc1C(=O)Nc1ccc(Cl)c(-c2nc3ccccc3o2)c1 | 15.8 µM [falling, single point] |
| Cc1ccc(N2C(=O)c3[nH]nc(-c4ccc(Cl)cc4)c3C2c2ccc(F)cc2)cc1 (stereo not drawn) | 25.1 µM [falling, partial curve] |
| CCOc1cc(NS(C)(=O)=O)c(OCC)cc1NC(=O)c1cccs1 | 25.1 µM [falling, partial curve, poor fit] |
| c1ccc(CCCc2nc(-c3ccccn3)no2)cc1 | 15.8 µM [falling, single point] |
| Cc1cc2ncn(C(=O)c3c(-c4c(Cl)cccc4Cl)noc3C)c2cc1C | 15.8 µM [rising, partial curve] [measured here: IkB-luc green channel] |
| COc1ccc(CNC(=O)c2cc3c(s2)-c2ccccc2OC3)cc1 | 1.58 µM [falling, full curve] |
| CCC(C)NC(=O)C(=O)Nc1c2c(nn1-c1ccccc1)CS(=O)(=O)C2 (stereo not drawn) | 20 µM [rising, partial curve] |
| O=C(c1ccc2c(c1)N(Cc1ccc(Cl)cc1)C(=O)c1ccccc1S2(=O)=O)N1CCCCC1 | 25.1 µM [falling, single point] |
| CC(C)c1ccc(C2N=C(N)Nc3nc4ccccc4n32)cc1 (stereo not drawn) | 15.8 µM [falling, single point] |
| Cc1c(Cl)cccc1NC(=O)C(C)n1nnc2sc3c(c2c1=O)CCCC3 (stereo not drawn) | 1 µM [falling, full curve] |
| Cc1c(C)n(C)c2ccc(C(=O)N3CCN(c4ccccc4)CC3)cc12 | 25.1 µM [falling, partial curve] |
| CSc1ncc(Cl)c(C(=O)N(Cc2ccc(N(C)C)cc2)Cc2ccco2)n1 | 31.6 µM [falling, single point] |
| Cc1cc(C)cc(NC(=O)Cn2c(=O)c3ccccc3n3nncc23)c1 | 25.1 µM [falling, partial curve] |
| Cc1ccc2c(=O)cc(C(=O)Nc3ccc(S(=O)(=O)N4CCCCCC4)cc3)oc2c1C | 15.8 µM [falling, single point] |
| CCCCOc1ccc(CNC(=O)CCCN2C(=O)CSc3c2c(C)nn3-c2ccccc2)cc1 | 25.1 µM [falling, single point] |
| CCOC(=O)c1ccccc1NC(=O)c1sc2nc3n(c(=O)c2c1C)CCCC3 | 25.1 µM [falling, single point] |
| CC(C)CNC(=O)c1cc(-c2ccco2)on1 | 5.01 µM [falling, partial curve] |
| Cc1noc(/C=C/N(C)C)c1S(=O)(=O)N1CCCC(C(=O)Nc2ccc3c(c2)OCO3)C1 (stereo not drawn) | 25.1 µM [falling, partial curve] |
| Cc1cccc(C2CC(=O)Oc3c2c(=O)n(C)c2ccccc32)c1 (stereo not drawn) | 39.8 µM [falling, single point] |
| O=C(Cn1c(=O)nc(-c2ccccc2)c2ccccc21)NCc1ccc(F)cc1 | 20 µM [falling, partial curve] |
| Cc1cc(O)c(C(c2ccccc2)N2CCN(C)CC2)c(=O)n1Cc1ccco1 (stereo not drawn) | 0.0126 µM [falling, full curve] |

| SMILES | AC50 |
| --- | --- |
| CC1=C(C(=O)N2CCN(c3cccc(C)c3C)CC2)C2(CCCCC2)OC1=O | 15.8 µM [falling, partial curve] |
| COc1ccc(-c2noc(CN(C(C)C)S(=O)(=O)c3ccc(Br)cc3)n2)cc1 | 39.8 µM [falling, single point] |
| Cc1cccc(NC2=CC(c3cccc(Br)c3)N(c3cccc(C)c3)C2=O)c1 (stereo not drawn) | 5.01 µM [falling, partial curve] |
| Cc1cc(NC(=O)c2ccccc2F)n(-c2nc3ccccc3[nH]2)n1 | 25.1 µM [falling, partial curve] |
| O=C(CCN1CCc2ccccc2C1)Nc1ccccc1 | 12.6 µM [falling, partial curve] |
| CCc1ccc(NCc2cc3cc(OC)c(OC)cc3n(CC(=O)Nc3cc(C)ccc3C)c2=O)cc1 | 15.8 µM [falling, partial curve] |
| COc1ccc(C(C)n2c(C)c3c(C)nnc(C)c3c2C)cc1 (stereo not drawn) | 15.8 µM [falling, single point] |
| Cc1cccc(C)c1Nc1nc2ccccc2nc1NS(=O)(=O)c1ccccc1 | 3.98 µM [falling, partial curve] |
| COc1ccc(S(=O)(=O)N(CC(=O)NCc2ccccc2)c2ccc(C)cc2)cc1OC | 25.1 µM [falling, partial curve, poor fit] |
| COc1cccc(CNC(=O)CSc2ncc(S(=O)(=O)c3ccc(Br)cc3)c(=O)[nH]2)c1 | 20 µM [falling, partial curve] |
| Cc1ccc(-c2nnc(Nc3ccc(Cl)c(Cl)c3)c3ccccc23)cc1S(=O)(=O)NCCO | 1.26 µM [falling, full curve] |
| Cc1ccc(NC(=O)C2CCCN2S(=O)(=O)c2cccc3nsnc23)cc1Cl (stereo not drawn) | 6.31 µM [falling, single point] |
| CC1CCN(S(=O)(=O)c2ccc3c(c2)CCN3C(=O)Nc2ccc(Br)cc2)CC1 | 2.51 µM [rising, partial curve] |
| Cc1ccccc1C(=O)N1CCN(CCc2ccccn2)CC1 | 7.94 µM [falling, full curve, poor fit] |
| c1ccc2[nH]c(NC3=NCCC3)nc2c1 | 39.8 µM [rising, single point] [measured here: IkB-luc green channel] |
| Cc1c(C(=O)Nc2ccc(C(C)C)cc2)sc2nc[nH]c(=O)c12 | 3.16 µM [rising, partial curve] |
| Cc1ccc(CNC(=O)c2c(O)nc3c(C)cccn3c2=O)cc1 | 20 µM [falling, partial curve, poor fit] |
| Cc1nc2ccc(S(=O)(=O)NC(CC(C)C)C(=O)N3CCN(c4ccc(F)cc4)CC3)cc2s1 (stereo not drawn) | 20 µM [falling, partial curve] |
| COc1ccc(Br)cc1CNC(=O)c1nn(-c2ccc(C)cc2)c(=O)c2c1c1ccccc1n2C | 20 µM [rising, partial curve] |
| Cc1ccccc1-c1noc(-c2cccnc2N(C)Cc2ccc(Cl)cc2)n1 | 10 µM [rising, partial curve] |
| Fc1ccc(Cc2cn3cc(-c4ccccc4)nc3s2)cc1 | 10 µM [falling, partial curve] |

| SMILES | AC50 |
| --- | --- |
| CCOC(=O)c1ccc(NC(=O)c2csnn2)cc1 | 7.94 µM [falling, full curve, poor fit] |
| CCOC(=O)c1cccc(NC(=O)CCC(=O)N2CC(C)Oc3ccc(C)cc32)c1 (stereo not drawn) | 20 µM [falling, single point] |
| COc1ccc(-c2n[nH]c3c2C(c2ccc(O)cc2)N(c2ccc(Br)cc2)C3=O)cc1 (stereo not drawn) | 15.8 µM [falling, partial curve] |
| c1ccc(OCCCc2nc(-c3ccncc3)no2)cc1 | 31.6 µM [falling, single point] |
| O=C(NC1CCCCCC1)c1ccc2c(c1)sc1nc(-c3ccccc3)cn12 | 39.8 µM [falling, single point] |
| CC1CN(c2nc(-c3ccccc3)nc3ccccc23)CC(C)O1 (stereo not drawn) | 20 µM [falling, partial curve] |
| C=CCn1c(SCCCc2ccccc2)nc2c1c(=O)[nH]c(=O)n2C | 25.1 µM [falling, partial curve] |
| Clc1ccc2nc(SCc3nnc(-c4ccccc4)o3)[nH]c2c1 | 31.6 µM [falling, single point] |
| O=C(C1CCC(Cn2c(=O)c3sccc3n(Cc3cccc(F)c3)c2=O)CC1)N1CCCCC1 (stereo not drawn) | 3.16 µM [rising, partial curve] |
| COc1ccc(CCNC(=O)c2ccc(CS(=O)(=O)Cc3cccc(C)c3)o2)cc1OC | 31.6 µM [falling, partial curve] |
| COC(=O)c1ccc(NC(=O)c2sc3nc(-c4ccccc4)cn3c2C)cc1 | 2 µM [falling, full curve] |
| CNC(=O)c1cc2c(=O)n3cc(C)ccc3nc2n(Cc2ccco2)c1=N | 12.6 µM [falling, partial curve] |
| CC(C)CCNC(=O)C1CCN(C(=O)N2CCOc3ccc(Cl)cc32)CC1 | 6.31 µM [falling, partial curve] |
| COc1ccc(C(=O)Nc2ccc(-c3cc4ccccc4oc3=O)c(C)c2)cc1OC | 10 µM [falling, partial curve] |
| COc1ccc(-c2noc(CSc3nnc(-c4ccncc4)n3-c3ccc(C)cc3)n2)cc1 | 25.1 µM [falling, single point] |
| COc1cccc(CNC(=O)C2CCC(CNS(=O)(=O)c3ccc(Br)s3)CC2)c1 (stereo not drawn) | 3.98 µM [falling, partial curve] |
| CCOC(=O)C(Cc1c[nH]c2ccccc12)NC(=O)COc1ccc(Cl)c(C)c1 (stereo not drawn) | 31.6 µM [falling, partial curve] |
| CCOc1nc(NC(=O)NS(=O)(=O)Oc2ccccc2)nc(-c2ccccc2)n1 | 20 µM [rising, partial curve] |
| COc1ccc(C(c2c(O)ccc3ccccc23)N2CCOCC2)c(OC)c1 (stereo not drawn) | 7.94 µM [falling, full curve] |
| CC(Oc1ccc(Cl)cc1Cl)c1nc(-c2ccc(NC(=O)c3cccnc3)cc2)no1 (stereo not drawn) | 3.16 µM [falling, full curve, poor fit] |
| CCOc1ccc(NC(=O)CSC2=Nc3ccccc3C3=NC(CC(=O)NCc4ccco4)C(=O)N23)cc1 (stereo not drawn) | 5.01 µM [falling, partial curve] |

Arranged by number of heavy atoms (low to high): 3 of the compounds above

| SMILES | AC50 |
| --- | --- |
| CCOC(=O)c1ccc(NC(=O)c2csnn2)cc1 | 7.94 µM [falling, full curve, poor fit] |
| COc1ccc(C(C)n2c(C)c3c(C)nnc(C)c3c2C)cc1 (stereo not drawn) | 15.8 µM [falling, single point] |
| CCOC(=O)c1cccc(NC(=O)CCC(=O)N2CC(C)Oc3ccc(C)cc32)c1 (stereo not drawn) | 20 µM [falling, single point] |
